# In the supplement of paper PMC12595434, “Development of retinoid nuclear receptor pathway antagonists through targeting aldehyde dehydrogenase 1A3” (iScience, 2025):
# By UniProt entry, the sequences of proteins in these tests, tags left out. Where a name states a change or a piece, a line headed by the entry shows the natural chain unless it says otherwise.
# UniProt Q00653: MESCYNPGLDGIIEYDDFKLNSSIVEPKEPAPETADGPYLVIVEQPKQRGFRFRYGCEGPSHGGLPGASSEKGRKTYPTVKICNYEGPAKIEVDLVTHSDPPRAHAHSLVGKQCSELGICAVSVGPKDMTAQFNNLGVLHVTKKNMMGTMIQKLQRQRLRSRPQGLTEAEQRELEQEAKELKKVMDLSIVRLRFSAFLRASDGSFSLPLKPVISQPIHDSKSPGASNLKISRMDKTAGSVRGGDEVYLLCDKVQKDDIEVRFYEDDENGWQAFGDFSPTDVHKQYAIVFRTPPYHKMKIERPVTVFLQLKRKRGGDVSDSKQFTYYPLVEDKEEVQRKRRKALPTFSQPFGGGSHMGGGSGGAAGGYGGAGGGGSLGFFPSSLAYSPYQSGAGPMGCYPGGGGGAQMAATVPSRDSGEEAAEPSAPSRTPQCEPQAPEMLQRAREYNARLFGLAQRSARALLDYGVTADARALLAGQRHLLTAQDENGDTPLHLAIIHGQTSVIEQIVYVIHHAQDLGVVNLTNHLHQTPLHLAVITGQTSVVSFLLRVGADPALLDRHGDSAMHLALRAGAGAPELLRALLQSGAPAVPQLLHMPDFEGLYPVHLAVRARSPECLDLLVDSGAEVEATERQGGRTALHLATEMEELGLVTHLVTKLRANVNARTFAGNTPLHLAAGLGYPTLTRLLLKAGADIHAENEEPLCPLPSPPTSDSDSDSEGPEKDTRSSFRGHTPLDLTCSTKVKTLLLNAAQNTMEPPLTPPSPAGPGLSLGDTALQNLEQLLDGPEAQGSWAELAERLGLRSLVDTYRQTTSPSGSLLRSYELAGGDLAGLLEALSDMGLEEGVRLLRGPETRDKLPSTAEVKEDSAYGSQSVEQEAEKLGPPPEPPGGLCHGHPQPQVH
# UniProt Q04726: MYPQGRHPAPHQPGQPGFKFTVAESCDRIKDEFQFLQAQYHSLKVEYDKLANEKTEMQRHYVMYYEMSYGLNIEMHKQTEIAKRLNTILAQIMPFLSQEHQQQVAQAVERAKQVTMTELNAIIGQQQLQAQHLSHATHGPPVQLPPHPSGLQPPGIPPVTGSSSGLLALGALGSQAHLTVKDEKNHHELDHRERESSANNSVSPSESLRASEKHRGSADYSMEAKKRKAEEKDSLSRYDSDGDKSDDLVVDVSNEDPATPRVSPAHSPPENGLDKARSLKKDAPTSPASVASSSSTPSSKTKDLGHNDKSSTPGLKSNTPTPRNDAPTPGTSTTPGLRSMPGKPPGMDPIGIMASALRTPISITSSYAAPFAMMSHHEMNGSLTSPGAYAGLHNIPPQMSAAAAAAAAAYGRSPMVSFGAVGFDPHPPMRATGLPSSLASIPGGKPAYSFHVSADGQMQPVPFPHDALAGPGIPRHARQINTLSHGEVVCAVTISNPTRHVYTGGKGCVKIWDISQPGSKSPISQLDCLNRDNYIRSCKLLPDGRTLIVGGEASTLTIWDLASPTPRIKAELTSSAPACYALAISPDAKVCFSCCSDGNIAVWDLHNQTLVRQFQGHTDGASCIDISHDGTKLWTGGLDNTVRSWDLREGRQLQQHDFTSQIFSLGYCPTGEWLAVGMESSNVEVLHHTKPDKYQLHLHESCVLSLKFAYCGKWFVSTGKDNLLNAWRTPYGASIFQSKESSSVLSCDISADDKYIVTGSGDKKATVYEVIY
# UniProt Q02127: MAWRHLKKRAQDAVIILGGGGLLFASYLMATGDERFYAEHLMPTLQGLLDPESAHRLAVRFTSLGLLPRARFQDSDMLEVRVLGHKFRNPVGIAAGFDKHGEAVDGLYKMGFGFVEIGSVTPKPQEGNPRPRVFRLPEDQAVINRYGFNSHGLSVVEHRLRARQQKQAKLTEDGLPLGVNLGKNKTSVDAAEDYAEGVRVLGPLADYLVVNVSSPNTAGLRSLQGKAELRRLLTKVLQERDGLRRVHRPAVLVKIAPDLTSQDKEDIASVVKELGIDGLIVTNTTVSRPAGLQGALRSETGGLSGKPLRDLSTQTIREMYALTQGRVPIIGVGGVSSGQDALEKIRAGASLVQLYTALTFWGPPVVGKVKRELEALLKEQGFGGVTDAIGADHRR
# UniProt P84085: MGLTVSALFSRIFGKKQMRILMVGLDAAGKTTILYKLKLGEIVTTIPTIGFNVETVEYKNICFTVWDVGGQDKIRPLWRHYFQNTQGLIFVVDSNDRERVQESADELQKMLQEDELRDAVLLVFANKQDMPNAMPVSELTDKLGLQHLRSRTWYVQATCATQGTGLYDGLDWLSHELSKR
# UniProt P84022, whole entry, looked up: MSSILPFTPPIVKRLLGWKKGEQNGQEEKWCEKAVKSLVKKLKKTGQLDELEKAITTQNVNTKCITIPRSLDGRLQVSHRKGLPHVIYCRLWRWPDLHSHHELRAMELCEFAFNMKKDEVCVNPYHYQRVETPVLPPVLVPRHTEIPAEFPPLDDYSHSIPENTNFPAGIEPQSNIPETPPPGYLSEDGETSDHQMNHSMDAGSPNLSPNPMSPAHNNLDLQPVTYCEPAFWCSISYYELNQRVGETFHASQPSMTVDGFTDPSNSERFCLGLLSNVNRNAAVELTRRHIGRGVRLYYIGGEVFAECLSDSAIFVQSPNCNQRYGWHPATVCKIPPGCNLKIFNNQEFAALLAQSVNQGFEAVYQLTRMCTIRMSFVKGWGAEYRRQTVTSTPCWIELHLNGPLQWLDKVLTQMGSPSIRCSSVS
# UniProt Q13042, whole entry: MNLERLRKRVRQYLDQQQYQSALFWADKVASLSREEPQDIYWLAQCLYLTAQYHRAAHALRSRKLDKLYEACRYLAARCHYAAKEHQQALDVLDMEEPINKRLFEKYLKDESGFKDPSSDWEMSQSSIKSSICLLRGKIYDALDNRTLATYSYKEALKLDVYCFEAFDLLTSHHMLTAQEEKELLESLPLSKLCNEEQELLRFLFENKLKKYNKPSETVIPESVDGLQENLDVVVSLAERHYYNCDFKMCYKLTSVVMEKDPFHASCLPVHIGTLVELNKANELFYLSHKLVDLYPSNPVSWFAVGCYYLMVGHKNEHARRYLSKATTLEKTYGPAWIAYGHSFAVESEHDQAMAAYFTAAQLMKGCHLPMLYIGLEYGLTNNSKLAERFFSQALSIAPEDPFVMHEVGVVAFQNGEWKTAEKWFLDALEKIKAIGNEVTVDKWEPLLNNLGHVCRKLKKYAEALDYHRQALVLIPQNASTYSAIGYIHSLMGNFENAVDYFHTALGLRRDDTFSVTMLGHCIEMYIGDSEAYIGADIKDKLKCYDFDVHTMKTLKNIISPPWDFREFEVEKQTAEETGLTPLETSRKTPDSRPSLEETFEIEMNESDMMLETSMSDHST
# UniProt Q08AM6: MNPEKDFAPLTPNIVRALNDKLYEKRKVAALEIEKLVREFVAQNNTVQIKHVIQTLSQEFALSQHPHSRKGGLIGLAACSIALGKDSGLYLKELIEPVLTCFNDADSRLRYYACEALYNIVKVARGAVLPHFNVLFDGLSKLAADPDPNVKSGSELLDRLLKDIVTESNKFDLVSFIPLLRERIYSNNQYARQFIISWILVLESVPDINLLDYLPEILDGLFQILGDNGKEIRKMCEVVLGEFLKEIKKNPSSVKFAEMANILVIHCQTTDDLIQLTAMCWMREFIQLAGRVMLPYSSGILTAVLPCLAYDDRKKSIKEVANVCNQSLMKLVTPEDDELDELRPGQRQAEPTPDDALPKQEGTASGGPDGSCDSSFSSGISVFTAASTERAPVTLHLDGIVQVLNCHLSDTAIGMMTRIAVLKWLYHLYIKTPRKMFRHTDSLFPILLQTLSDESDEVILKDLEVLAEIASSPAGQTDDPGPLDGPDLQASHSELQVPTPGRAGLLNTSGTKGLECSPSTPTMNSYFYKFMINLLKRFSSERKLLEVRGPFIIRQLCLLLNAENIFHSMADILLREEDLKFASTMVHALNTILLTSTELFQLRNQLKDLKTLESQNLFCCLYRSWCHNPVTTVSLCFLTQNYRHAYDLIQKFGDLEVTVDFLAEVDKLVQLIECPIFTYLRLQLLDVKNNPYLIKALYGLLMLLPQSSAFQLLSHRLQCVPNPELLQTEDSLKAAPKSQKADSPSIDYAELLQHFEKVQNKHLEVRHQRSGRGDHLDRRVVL
# UniProt P82909: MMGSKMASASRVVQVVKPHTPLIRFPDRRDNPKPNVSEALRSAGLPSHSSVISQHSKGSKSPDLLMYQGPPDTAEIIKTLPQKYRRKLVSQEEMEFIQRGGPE
# UniProt Q03519, whole entry: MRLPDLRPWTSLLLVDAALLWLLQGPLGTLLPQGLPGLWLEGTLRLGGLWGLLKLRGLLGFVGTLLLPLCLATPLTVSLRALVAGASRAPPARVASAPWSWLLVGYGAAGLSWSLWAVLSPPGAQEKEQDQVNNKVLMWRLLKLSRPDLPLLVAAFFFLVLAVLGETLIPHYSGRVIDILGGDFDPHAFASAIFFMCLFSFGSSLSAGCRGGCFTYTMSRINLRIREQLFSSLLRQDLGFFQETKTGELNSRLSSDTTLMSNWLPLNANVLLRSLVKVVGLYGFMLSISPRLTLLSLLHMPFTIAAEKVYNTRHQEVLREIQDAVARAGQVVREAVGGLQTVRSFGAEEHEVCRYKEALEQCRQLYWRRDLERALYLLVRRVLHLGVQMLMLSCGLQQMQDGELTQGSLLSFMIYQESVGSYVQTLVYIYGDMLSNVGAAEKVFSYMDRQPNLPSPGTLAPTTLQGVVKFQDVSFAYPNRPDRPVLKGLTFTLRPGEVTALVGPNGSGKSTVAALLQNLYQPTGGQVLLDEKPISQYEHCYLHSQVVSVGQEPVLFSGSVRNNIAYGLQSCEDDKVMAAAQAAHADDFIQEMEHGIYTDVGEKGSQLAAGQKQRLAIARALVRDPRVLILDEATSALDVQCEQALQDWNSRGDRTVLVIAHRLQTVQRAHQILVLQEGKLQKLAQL
# UniProt P86791: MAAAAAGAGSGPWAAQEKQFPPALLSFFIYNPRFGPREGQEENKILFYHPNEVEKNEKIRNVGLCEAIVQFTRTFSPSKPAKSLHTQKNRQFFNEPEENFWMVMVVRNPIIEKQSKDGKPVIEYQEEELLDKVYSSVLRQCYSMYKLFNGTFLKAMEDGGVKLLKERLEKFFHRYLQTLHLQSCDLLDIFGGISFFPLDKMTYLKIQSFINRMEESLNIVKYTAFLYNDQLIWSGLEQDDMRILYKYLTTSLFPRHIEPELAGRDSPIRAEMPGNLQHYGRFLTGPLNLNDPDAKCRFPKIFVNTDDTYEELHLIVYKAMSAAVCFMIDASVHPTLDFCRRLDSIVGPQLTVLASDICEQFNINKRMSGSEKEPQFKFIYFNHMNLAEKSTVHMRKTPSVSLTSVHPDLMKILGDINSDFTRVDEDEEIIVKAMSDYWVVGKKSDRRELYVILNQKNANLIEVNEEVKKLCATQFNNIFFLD
# UniProt Q09019: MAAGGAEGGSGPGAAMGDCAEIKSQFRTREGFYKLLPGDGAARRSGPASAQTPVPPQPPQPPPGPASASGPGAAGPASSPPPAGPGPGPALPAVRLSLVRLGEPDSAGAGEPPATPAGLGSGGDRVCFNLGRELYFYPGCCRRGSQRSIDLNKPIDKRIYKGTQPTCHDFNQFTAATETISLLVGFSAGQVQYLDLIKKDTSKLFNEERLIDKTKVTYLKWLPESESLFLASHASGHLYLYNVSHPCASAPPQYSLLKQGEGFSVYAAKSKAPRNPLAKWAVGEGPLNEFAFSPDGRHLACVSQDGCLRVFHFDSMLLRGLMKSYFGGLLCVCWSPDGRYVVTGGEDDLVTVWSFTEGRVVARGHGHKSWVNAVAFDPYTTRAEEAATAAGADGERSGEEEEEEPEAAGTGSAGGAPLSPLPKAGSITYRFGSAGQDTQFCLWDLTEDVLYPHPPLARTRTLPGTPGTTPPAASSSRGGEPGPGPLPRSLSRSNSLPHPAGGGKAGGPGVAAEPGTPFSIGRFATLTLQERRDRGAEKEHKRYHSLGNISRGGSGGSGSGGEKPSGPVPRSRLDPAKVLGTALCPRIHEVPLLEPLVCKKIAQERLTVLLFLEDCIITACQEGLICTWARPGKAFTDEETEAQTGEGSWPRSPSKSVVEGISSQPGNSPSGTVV
# UniProt Q03426, whole entry: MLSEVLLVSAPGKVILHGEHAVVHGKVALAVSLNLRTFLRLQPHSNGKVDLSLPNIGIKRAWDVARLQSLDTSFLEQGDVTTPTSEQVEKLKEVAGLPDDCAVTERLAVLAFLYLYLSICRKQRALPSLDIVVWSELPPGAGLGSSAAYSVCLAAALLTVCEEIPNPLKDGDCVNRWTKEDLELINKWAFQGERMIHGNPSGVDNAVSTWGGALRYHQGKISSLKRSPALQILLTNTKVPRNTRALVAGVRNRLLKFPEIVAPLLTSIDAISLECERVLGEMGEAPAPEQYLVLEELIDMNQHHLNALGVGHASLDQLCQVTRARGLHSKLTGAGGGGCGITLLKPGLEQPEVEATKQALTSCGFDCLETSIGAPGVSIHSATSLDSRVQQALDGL
# The list shows a part of the results. Single values of this set are uncertain.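 Tm was set to 64 °C where no melting was found, and many curves are irregular.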
# Compound: CCc1cnccc1C(=O)Nc1cc2c(cc1F)NC(=O)CC2
# Assay: melting temperature shift (DMSO Tm minus MBE1-treated Tm) in cellular thermal proteome profiling; higher = less thermal stabilization by MBE1 (negative = stabilized by MBE1)
# Settings: A375
Target,melting temperature shift (MBE1 concentration: 100 nM) [°C],melting temperature shift (MBE1 concentration: 1 uM) [°C]
UniProt P83881,-0.372,-0.147
NFKB2 (UniProt Q00653),-0.679,-1.05
TLE3 (UniProt Q04726),-1.15,-0.469
OTUD4 (UniProt Q01804),0.482,0.0611
DHODH (UniProt Q02127),-1.72,-0.919
UniProt Q05639,-0.315,-0.423
RPL18A (UniProt Q02543),-0.519,0.427
ARF5 (UniProt P84085),-1.3,-2.66
UniProt Q12955,-0.809,0.348
UniProt P84022,-3.7,-8.27
CDC16 (UniProt Q13042),0.427,0.293
VAC14 (UniProt Q08AM6),-0.181,-0.617
HDLBP (UniProt Q00341),-0.728,-0.199
ATP2C1 (UniProt P98194),-0.496,0.785
CCT2 (UniProt P78371),-1.04,-0.134
PPP3CA (UniProt Q08209),-1.53,0.731
MRPS36 (UniProt P82909),-0.664,-0.127
TAP2 (UniProt Q03519),-0.141,-0.113
FOXO1 (UniProt Q12778),-1.38,-2.36
P86790 (UniProt P86791),1.43,0.403
DMWD (UniProt Q09019),-2.04,-3.71
UniProt Q13009,-1.6,0.122
MVK (UniProt Q03426),0.221,0.925

# Retrieved one by one from the entries so far, 2 records:
Target,melting temperature shift (MBE1 concentration: 100 nM) [°C],melting temperature shift (MBE1 concentration: 1 uM) [°C]
FOXO1 (UniProt Q12778),-1.38,-2.36
ARF5 (UniProt P84085),-1.3,-2.66
